Laboratory results published in PubChem BioAssay AID540276 (National Center for Advancing Translational Sciences (NCATS), 2011).
Hit rate of the full screen: of about 300,000 compounds, about 5,400 (1.8%) were called active. Inconclusive means that the source gave no clear call. Such entries were picked first, then a sample of the others. Calls follow the shape of the full dose curve; tested in HEK293 cells. A potency beside an inconclusive call is a rough fit, not a confirmed value.

Assay: qHTS for inhibitors of binding or entry into cells for Marburg Virus
Details: Marburg virus pseudotyped entry inhibition, cell reporter; activity change, negative = inhibition: at 37.8 µM (top of the series) unless noted
% is scaled to controls: 0 for no effect and ±100 for the full control effect; potency is read from the fitted curve at half-maximal effect.

Compound	activity change, negative = inhibition	Potency
CC(=O)Nc1ccc(S(=O)(=O)N(C)CC(=O)OCC(=O)N2CCCCCC2)cc1	inactive: 11.9% [at 46.1 µM]	
COc1ccc(C2C(Oc3ccccc3C)C(=O)N2Cc2ccc(F)cc2)cc1OC (stereo unspecified)		inconclusive: 28.2 µM [inhibitor, single point]
COC(=O)c1ccc(NC(=O)c2ccc3c(c2)OCO3)cc1	inactive: -2.12%	
CCCCN1C(=O)C(=O)N(CC(=O)c2cc(C)n(C3CC3)c2C)C1=O	inactive: 29%	
N#Cc1ccsc1NC(=O)COc1ccc(-c2nnco2)cc1	inactive: 28.5%	
O=C(NCc1ccccc1)c1ccc2c(c1)CCN2S(=O)(=O)c1ccc(Cl)cc1	inactive: -2.12% [at 46.1 µM]	
COc1cccc(C2N(Cc3ccccc3)C(=O)C2(F)F)c1OC (stereo unspecified)		inconclusive: 8.2 µM [inhibitor, partial curve, poor fit]
CC(NC(=O)c1csc2ccccc12)C1CCCO1 (stereo unspecified)	inactive: 12.5%	
CCOC(=O)c1c(NC(=O)C2COc3ccccc3O2)sc(C(C)=O)c1C (stereo unspecified)		inconclusive: 2.06 µM [inhibitor, partial curve, poor fit]
O=C(c1cnc(N2CCN(c3ncccn3)CC2)c2ccccc12)N1CCN(c2ccccn2)CC1		inconclusive: 12.6 µM [inhibitor, partial curve, poor fit]
O=C(COC(=O)c1cccc(NS(=O)(=O)c2ccc(F)c(F)c2)c1)NC(=O)NC1CCCC1		inconclusive: 2.51 µM [activator, full curve, poor fit]
CCC(C)Nc1c([N+](=O)[O-])cc(C)cc1[N+](=O)[O-] (stereo unspecified)		inconclusive: 35.5 µM [activator, single point]
Cc1cc(C)nc(Sc2nc(Cl)nc(N(c3ccccc3)c3ccccc3)n2)n1		inconclusive: 1.26 µM [inhibitor, single point]
Cc1cc(OC(C)C(=O)N(Cc2ccc(N(C)C)cc2)Cc2ccco2)ccc1Cl (stereo unspecified)	inactive: 0.713% [at 46.1 µM]	
CC1CCCN(CCCNC(=O)c2ccc3c(c2)N(Cc2ccc(Cl)cc2)C(=O)c2ccccc2S3(=O)=O)C1 (stereo unspecified)		inconclusive: 28.2 µM [inhibitor, partial curve, poor fit]
COC(=O)c1cc(C#N)c(Oc2ccc(F)cc2)nc1C		inconclusive: 0.316 µM [activator, partial curve, poor fit]
CCOC(=O)c1oc2c(CN3CCN(C)CC3)c(O)ccc2c(=O)c1-c1ccccc1OC	inactive: -1.57%	
COc1cccc(NC(=O)c2ccc3c(c2)N(CC(=O)N2CCCCC2)C(=O)C(C)(C)O3)c1		inconclusive: 10.3 µM [inhibitor, partial curve, poor fit]
COC(=O)C1=CN(Cc2ccc(C)cc2)C=C(C(=O)OC)C1c1ccc(F)c(F)c1		inconclusive: 12.6 µM [inhibitor, partial curve, poor fit]
CCOC(=O)c1cc([N+](=O)[O-])c([N+](=O)[O-])cc1NC(C)=O		inconclusive: 29.1 µM [inhibitor, single point]
COCC(C)NC(=S)Nc1ccccc1[N+](=O)[O-] (stereo unspecified)		inconclusive: 35.5 µM [activator, single point]
CCOC(=O)C1CCN(C(c2ccccn2)c2c(C)[nH]c3ccccc23)CC1 (stereo unspecified)	inactive: -5.86%	
COCC(C)N1CC(O)=C(c2nc(-c3ccc(Cl)cc3)cs2)C1=N (stereo unspecified)	inactive: 15.7% [at 46.1 µM]	
CCc1nc2ccc(C(=O)O)cc2nc1CC		active: 2 µM

Compound	activity change, negative = inhibition	Potency
O=C(COc1ccc(S(=O)(=O)NCc2ccccc2)cc1Cl)NCc1ccncc1	inactive: -0.889% [at 46.1 µM]	
CCOC(=O)c1c(NC(=O)CSc2cn(CCNC(=O)c3ccc(OC)cc3)c3ccccc23)sc2c1CCCC2	inactive: 3.86% [at 46.1 µM]	
O=C1CSC(c2ccccc2)N1CC12CC3CC(CC(O)(C3)C1)C2 (stereo unspecified)		inconclusive: 29.1 µM [activator, partial curve, poor fit]
COc1cccc2cc(C(=O)NCc3ccccc3)c(=N)oc12	inactive: -21.6%	
Cc1cccn2c(=O)c3cc(C(=O)NCC4CCCO4)c(=N)n(Cc4cccnc4)c3nc12 (stereo unspecified)		inconclusive: 0.112 µM [inhibitor, full curve, poor fit]
CCCc1nc(NC2CCCCC2)c(C#N)c2c1COC(C)(C)C2		inconclusive: 8.2 µM [inhibitor, partial curve, poor fit]
CCc1ccc(/C=C/C(=O)c2c(C)cc(C)[nH]c2=O)cc1		inconclusive: 11.2 µM [inhibitor, partial curve, poor fit]
Cc1ccc(NC(=O)CS(=O)CC(=O)Nc2ccccc2-c2ccc(C)o2)cc1 (stereo unspecified)		inconclusive: 35.5 µM [inhibitor, single point]
O=C(Nc1nnc(SCc2ccccc2F)s1)C1=COCCO1		inconclusive: 3.55 µM [activator, single point]
COc1ccc(OC)c(S(=O)(=O)N2CCC(C(=O)NCc3ccncc3)CC2)c1	inactive: -5.46% [at 46.1 µM]	
Cc1cccc(Nc2nc(N)c([N+](=O)[O-])c(N3CCCC(C)C3)n2)c1 (stereo unspecified)		inconclusive: 10.3 µM [inhibitor, partial curve, poor fit]
COc1ccc(NC(=S)Nc2cc(C)cc(C)n2)cc1OC	inactive: 24.9%	
O=C(Nc1ccc2c(c1)OCCO2)c1cc2ccccc2o1		active: 3.98 µM
CCNC(=S)N/N=C/c1cccc(C)c1		inconclusive: 13 µM [inhibitor, partial curve, poor fit]
Cc1ccc(Nc2nc(Cl)c(C=O)s2)cc1Cl		inconclusive: 35.5 µM [inhibitor, single point]
CCN(CC(=O)Nc1ccc(NC(C)=O)cc1)C(=O)/C=C/c1cn(-c2ccccc2)nc1-c1cccs1	inactive: -17.1%	
CC1N(C(=O)N2CCOCC2)CCN1S(=O)(=O)c1ccc(Cl)cc1 (stereo unspecified)	inactive: 7.75%	
CCOC(=O)c1cnn(-c2ccccc2)c1NC(=O)CN1CCCCC1		inconclusive: 31.6 µM [inhibitor, partial curve, poor fit]
CCN(CC)CCCN=Cc1c(O)n(-c2cccc(C)c2C)c(=O)[nH]c1=O		inconclusive: 0.112 µM [inhibitor, full curve, poor fit]
O=C(Nc1ccc(OC(F)(F)F)cc1)Nc1cccc([N+](=O)[O-])c1		inconclusive: 28.2 µM [inhibitor, single point]
Cc1cc(C)c(N=Cc2c(O)c3ccccc3oc2=O)c(C)c1	inactive: -0.143%	
COc1cc(NC(=O)Cc2nn(C)c(=O)c3ccccc23)cc(OC)c1		inconclusive: 6.31 µM [inhibitor, full curve, poor fit]
COC(=O)CN1C(c2ccccc2)=Nc2ccc(Cl)cc2C1c1ccccc1 (stereo unspecified)		inconclusive: 29.1 µM [inhibitor, single point]
CSc1nc(-c2ccc(C)cc2)[nH]c1S(=O)(=O)c1ccccc1		inconclusive: 15.8 µM [inhibitor, single point]

Reformatted bar-delimited: five of the compounds above.
Compound | activity change, negative = inhibition | Potency
CCNC(=S)N/N=C/c1cccc(C)c1 |  | inconclusive: 13 µM [inhibitor, partial curve, poor fit]
Cc1ccc(Nc2nc(Cl)c(C=O)s2)cc1Cl |  | inconclusive: 35.5 µM [inhibitor, single point]
CCN(CC(=O)Nc1ccc(NC(C)=O)cc1)C(=O)/C=C/c1cn(-c2ccccc2)nc1-c1cccs1 | inactive: -17.1% | 
CC1N(C(=O)N2CCOCC2)CCN1S(=O)(=O)c1ccc(Cl)cc1 (stereo unspecified) | inactive: 7.75% | 
CCOC(=O)c1cnn(-c2ccccc2)c1NC(=O)CN1CCCCC1 |  | inconclusive: 31.6 µM [inhibitor, partial curve, poor fit]

Later entries.

Compound	activity change, negative = inhibition	Potency
CN(CCc1ccccn1)C(=O)c1cccnc1Oc1ccc(Cl)cc1		inconclusive: 6.31 µM [activator, partial curve, poor fit]
Cc1nnc(SCc2nnc(-c3cccs3)o2)s1	inactive: 8.01%	
Cc1nc2ccccc2c(=O)n1-c1ccc([N+](=O)[O-])cc1		inconclusive: 12.6 µM [activator, single point]
CCCNc1ncc2c(=O)[nH][nH]c(=O)c2n1	inactive: -13.1% [at 46.1 µM]	
CCc1ccc(C(=O)NCC2COc3ccccc3O2)o1 (stereo unspecified)		inconclusive: 23.1 µM [activator, partial curve]
CCC(C)n1c(SCc2ccccc2)nc2ccsc2c1=O (stereo unspecified)		inconclusive: 35.5 µM [inhibitor, single point]
O=C(O)c1ccc(N/N=C/c2cccc(F)c2)cc1		active: 10.3 µM
CCOc1ccc2nc(NC(=O)C(NS(=O)(=O)c3cccc4nsnc34)C(C)C)sc2c1 (stereo unspecified)	inactive: -6.09%	
Cc1cc(C)n2nc(C)[n+](C)c2n1		inconclusive: 2.24 µM [activator, full curve, poor fit]
C=C1C(=O)O[C@H]2[C@H]1[C@@H](O)CC(=C)[C@@H]1CC(=O)[C@@H](C)[C@H]21		inconclusive: 11.2 µM [inhibitor, partial curve, poor fit]
COc1ccccc1NC(=O)c1oc2ccccc2c1NC(=O)Cc1ccccc1	inactive: 2.86% [at 46.1 µM]	
Cc1cc(C=C(C#N)C#N)c(C)n1-c1ccccc1	inactive: 16.4%	
CCOC(=O)c1cnc2c(ccc3ccccc32)c1NCCO		inconclusive: 2.82 µM [activator, partial curve, poor fit]
Cc1cccc(NC(=O)CCSc2ccccn2)c1		inconclusive: 0.0231 µM [activator, full curve, poor fit]
CCN(CC)CCCNC(=O)C1c2ccccc2C(=O)N(CCOC)C1c1ccc(F)cc1 (stereo unspecified)	inactive: 13.5%	
O=C(C(=C1NCCN1)n1cncn1)c1ccccc1		inconclusive: 23.1 µM [activator, single point]
CCOC(=O)c1nc(Nc2ccc(C(=O)OC(C)C)cc2)c2ccccc2n1	inactive: 0.328% [at 46.1 µM]	
COc1ccc(Br)cc1CNc1ccc(S(N)(=O)=O)cc1		inconclusive: 0.562 µM [activator, full curve, poor fit]
COc1ccc(O)c(C2=Nc3ccccc3N=C(c3ccccc3)C2)c1		inconclusive: 35.5 µM [inhibitor, single point]
CC(C)N1C(=O)S/C(=C/c2cccnc2)C1=O	inactive: 17.7%	
CCN(CC)CCOC(=O)c1ccc(NC(=O)CNC(=O)C2CCCCC2)cc1		inconclusive: 1.12 µM [inhibitor, partial curve, poor fit]
C=CCSc1n[nH]c(-c2ccc(OCCCC)cc2)n1	inactive: -4.72%	
Cc1cccn2c(=O)c(/C=C(\C#N)C(=O)NC3CCS(=O)(=O)C3)c(N3CC(C)OC(C)C3)nc12 (stereo unspecified)	inactive: -16.9% [at 46.1 µM]	
